Assay results: paper PMC4901263
No constants are given. Whether binding was seen depends on the method and setting. In cells and extracts the contact can be indirect. For part of these data: A result given as binding can be weak or reduced; the word gives no strength. Tags and fused reporters may be left off the sequences shown.

Key:
Test in all cases: co-IP; HEK293T cells co-transfected with tagged CIDEB and a tagged HCV protein; lysis buffer 50 mM Tris pH 7.4, 150 mM NaCl, 0.5% NP-40, 1.0 mM EDTA; IP with anti-Flag, anti-HA or anti-GFP antibody and protein A/G beads at 4 °C; blot with anti-HA, anti-Flag or anti-NS3
[1] = biological target: HA-NS5A-∆(DII + DIII) (hepatitis C virus (strain not stated))
[2] = biological target: HA-NS5A-∆DI (hepatitis C virus (strain not stated))
[3] = biological target: HA-NS5A-∆DIII (hepatitis C virus (strain not stated))

B1: Flag-CIDEB (in HEK293T cells) (protein, UniProt Q9UHD4 1-219)
chain: MEYLSALNPSDLLRSVSNISSEFGRRVWTSAPPPQRPFRVCDHKRTIRKGLTAATRQELLAKALETLLLNGVLTLVLEEDGTAVDSEDFFQLLEDDTCLMVLQSGQSWSPTRSGVLSYGLGRERPKHSKDIARFTFDVYKQNPRDLFGSLNVKATFYGLYSMSCDFQGLGPKKVLRELLRWTSTLLQGLGHMLLGISSTLRHAVEGAEQWQQKGRLHSY
In the case of B1, the binding [1] is reported as “binds”, the binding [2] is reported as “no binding” and the binding [3] is reported as “binds”.
